## Primary screen of a compound library

A: 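Whole-cell growth test on Mycobacterium tuberculosis, read after 4 days in a medium based on cholesterol and the lipid DPPC; the read-out is not stated. Compounds at 500 µM. Higher reads as more growth inhibition (inferred: compounds with an IC50 in retests scored well above the rest). Size under these conditions: about 18,000 compounds, about 900 of them at 50% or above in at least one test.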
B: 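Growth of Mycobacterium tuberculosis over 3 days (7H9 medium with glucose and tyloxapol); the read-out is not stated. Concentration: 500 µM. The record gives no direction; compounds that gave an IC50 in retests scored well above the rest, so higher reads as more growth inhibition. About 18,000 compounds were tested under these conditions; 7.9% (about 1,400) showed 50% or more at least once.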

The filed quantity is “Percent Effect” (%). The record does not define 0% and 100%; most values in the screen are far below 50% and negative numbers occur (in some assays of this library far below -100). This is an unselected part of the compounds tested.

SMILES	A	B
CC(C)CCC(=O)N1CCNCC1	2.558	6.509
CC(C)(CNCc1ccsc1)N1CCOCC1	-3.463	1.343
CC(=O)NCCCSc1ccoc1C	-5.187	-0.06406
CC(=O)NC(Cc1ccc(O)cc1)C(C)=O (configuration not stated)	8.11	8.023
CN(Cc1ncnn1C)C(=O)CCc1cccc(Cl)c1	26.92	41.76
CN1CCC(CN2CCC3(CCNCC3)C2)CC1	-8.767	1.257
Cc1cccc(NCC2CCCCN2)n1 (configuration not stated)	17.1	14.2
CCCC(=O)Nc1ccc(N2CCN(C)CC2)cc1C	-14.46	-18.18
CN(C)S(=O)(=O)CCCN1CC(c2ccccn2)C1	-12.2	8.602
CN1CCCN(C(=O)CC(C)(C)C)CC1	5.013	-5.123
CNC(=O)CN(C)CCn1c(=O)cc(C)[nH]c1=O	4.511	6.223
CCOC(=O)c1sc(O)nc1C	10.17	23.72
COc1ccc(CNC(=O)c2cnccn2)cc1OC	21.76	46.13
CNCCN(C)C(=O)c1ccc(F)c(Br)c1	3.622	9.41
CCc1ccc(C(=O)NCc2ccccn2)o1	61.69	61.69
NCCCC(=O)N1CCc2ccccc2C1	-5.176	14.7
CC(OC(=O)Cn1cnc2ccccc2c1=O)C(N)=O (configuration not stated)	-13.86	-10.41
CC[C@H](C)[C@H](NC(N)=O)C(=O)Nc1ccccc1F	-35.32	-15.11
Cn1cc(Br)cc1C(=O)NCCc1nncn1C1CC1	-0.7909	9.889
O=C(NC1(CCO)CCC1)c1c(O)cc(F)cc1F	14.75	26.22
COCC(=O)N1CCN(CCC(=O)OC(C)(C)C)CC1	-10.04	-8.81
Cc1ccc(C(=O)N2C[C@@H](CO)[C@H](N(C)C)C2)cc1	-22.44	-0.7259
NCc1cn2cc(Br)ccc2n1	26.55	37.03
NC(Cc1ccccn1)c1cccnc1 (configuration not stated)	-13.38	21.35
CCC(O)CN1CCN(c2ccccc2C#N)C(=O)C1 (configuration not stated)	-12.79	5.122
COCC(=O)NC1CNC1	10.37	36.78
N#Cc1cnc(N2CCC[C@@H]2CO)cn1	4.765	5.049
CC(C)CC1(CO)CCCN1 (configuration not stated)	-8.821	-8.305
CC1CCN(CC(=O)N(C)Cc2ccccn2)CC1	-6.827	3.867
CCNC(=O)N1CCC(NC(=O)c2ccc(C)o2)CC1	4.971	30.84
Cc1ccc(NC(=O)CN2CCNC(=O)C2)c(Cl)c1	-8.983	5.493
CNc1cnc(C#N)cn1	9.409	6.999
CCCNC(=O)C1CN(C(C)=O)c2ccccc2O1 (configuration not stated)	-3.273	11.93
O=C1CCC(C(=O)Nc2nc3c(s2)CCCCC3)CN1 (configuration not stated)	-19.51	-9.091
Cc1cccn2cc(CCNS(C)(=O)=O)nc12	-12.57	-3.124
Cc1cc(C)c(C#N)c(SCC(=O)N2CCCC2)n1	-1.58	20.73
Cn1cc(Br)c(=O)c(NC(=O)c2ccoc2)c1	-9.011	-6.276
NC(=O)[C@@H]1CCCN1	18.88	3.771
COCCOC1CCN(Cc2cncn2C)CC1	10.37	1.492
Cc1ccc(CN(C)CC(=O)NCCC#N)o1	-17.75	7.87
CCCN1CCC(NCc2ncccc2F)CC1	7.324	22.85
CC(O)(CNC1CCC2(CC1)OCCO2)c1ccsc1 (configuration not stated)	-9.485	1.083
Cc1cc(C(=O)N2CCC(F)(F)CC2)cc(C)n1	2.939	-1.645
Cc1nn(C)cc1C1CCCN1 (configuration not stated)	12.99	4.446
NCCOc1ccc2ccccc2n1	39.3	69.09
OC1CCN(C2CCNCC2)CC1	6.831	2.773
O=C(NC1CCN(C2CCCC2)CC1)c1cnc[nH]1	0.7842	2.919
COc1ccc2c(c1)OCCN(C(=O)C(C)OC)C2 (configuration not stated)	6.635	23.49
COc1cc(OC)c(S(N)(=O)=O)c(OC)c1	-17.18	-0.9752
CC(=O)Nc1cccc(CN2CCOCC2)c1	-8.204	-2.934
CSCC(=O)N1CCC(C2CCN(S(C)(=O)=O)CC2)C1 (configuration not stated)	-24.63	-5.209
O=C(c1cc(C2CC2)n[nH]1)N1CCC2(CCCO2)CC1	11.27	51.5
CN1CCN(CC(O)CN(C)c2ncc(Br)cn2)CC1 (configuration not stated)	5.57	21.5
COc1cn(C)c(C(=O)NCc2ccco2)cc1=O	9.154	13.12
CNC(=O)CSC(C)C(=O)N(C)C(C)C (configuration not stated)	-2.592	-0.1738
CSCC(CCO)NC(=O)c1cc(F)ccc1O (configuration not stated)	-6.077	14.56
CC(=O)N1CCN(C(=O)c2cc3ccccc3o2)CC1	-0.6113	16.75
COc1cc(-c2cc(N)n[nH]2)cc(OC)c1OC	9.919	11.91
NCCS(=O)(=O)NCC1CCC1	-6.97	14.6
CSCc1noc(CN2CCN(C)C(CCO)C2)n1 (configuration not stated)	5.279	1.869
CN(CCCNC(=O)C1CNCCO1)c1ccccc1 (configuration not stated)	7.892	32.24
Nc1cc(CN2CCOC(c3nccs3)C2)ccn1 (configuration not stated)	7.597	23.93
CC(C1CC1)N(C)C(=O)C1CC1 (configuration not stated)	2.566	-0.785
Cc1c(Cl)cccc1OCC(=O)NC(C(N)=O)C(C)C (configuration not stated)	18.29	41.19
CC(=O)C(O)c1cccc(Cl)c1 (configuration not stated)	-6.201	18.54
N#Cc1cnn(-c2ccccc2)n1	-7.632	-3.929
N#Cc1ccc(NC(=O)NCc2cncnc2N)cc1	30.13	38.95
CC(=O)c1nc(N)sc1C	11.06	10.85
C1CC(NC2COC2)CCO1	-20.64	-10.39
CCC[C@H]1CN(C(=O)c2cccc(COC)n2)C[C@@H]1N	-3.804	4.182
Cn1cc(C(=O)NCCc2noc(C3CC3)n2)cn1	-28.78	-3.557
COCCNc1nnc(SCc2ccc(Br)cn2)s1	57.75	64.38
O=C(NC[C@H]1CCCN1)c1ccc2cccc(Cl)c2n1	17.89	32.99
Cc1cnc(CN2CCC(N)CC2)c(C)c1O	2.933	-1.839
Cc1nnc(CN2C[C@H](C3CC3)[C@@H](N)C2)s1	7.342	7.436
OCCCNC1(c2nccs2)CCCC1	-7.378	-8.938
CC(C(=O)Nc1ccccn1)N(C)CC1(C)COC1 (configuration not stated)	4.186	25.28
CCC(=O)Nc1ccc(CN2CCOCC2)c(Cl)c1	6.286	-6.053

Some entries from above, unchanged:

| SMILES | A | B |
|---|---|---|
| `Nc1cc(CN2CCOC(c3nccs3)C2)ccn1` (configuration not stated) | 7.597 | 23.93 |
| `CC[C@H](C)[C@H](NC(N)=O)C(=O)Nc1ccccc1F` | -35.32 | -15.11 |
| `CSCc1noc(CN2CCN(C)C(CCO)C2)n1` (configuration not stated) | 5.279 | 1.869 |
| `Cc1ccc(CN(C)CC(=O)NCCC#N)o1` | -17.75 | 7.87 |
| `CCC(=O)Nc1ccc(CN2CCOCC2)c(Cl)c1` | 6.286 | -6.053 |
| `COCC(=O)NC1CNC1` | 10.37 | 36.78 |
| `CC(=O)C(O)c1cccc(Cl)c1` (configuration not stated) | -6.201 | 18.54 |

Measurements from “University of Dundee, Small-Polar-MMV Screening Library” (2021), ChEMBL document CHEMBL3988442.